According to the odorant receptor screen of Mainland et al. (2015):
Several values for one entry are separate records, joined by “and”; a condition that tells them apart may be missing. Identical values can stand only once. The list shows a part of the results. Single wells; the ratio to wells without odorant was worked out here, and repeats agree poorly.

Legend:
Test in all cases: odorant receptor activation (CRE luciferase / Renilla) (fold of no-odor wells); higher = more activation
Details in all cases: 100 µM
[1] = tested on: OR2B8 Indel clone 1076
[2] = tested on: OR2C1 C149W clone 1282
[3] = tested on: OR2C1 G16S/C149W/R229H clone 1408
[4] = tested on: OR2C1 P58S/C149W clone 1409
[5] = tested on: OR2C1 clone 1406
[6] = tested on: OR2C1 clone 1407
[7] = tested on: OR2C3 T20A/P68S/L289V clone 1454
[8] = tested on: OR2D2 clone 1235
[9] = tested on: OR2D3 L66I clone 1381
[10] = tested on: OR2F1 clone 1082
[11] = tested on: OR2F2 A98V clone 1087
[12] = tested on: OR2G2 P24A/V120L/R236G clone 1349
[13] = tested on: OR2G2 clone 1385
[14] = tested on: OR2G3 clone 1328
[15] = tested on: OR2G3 clone 1382
[16] = tested on: OR2G6 clone 1487
[17] = tested on: OR2H1 clone 1393
[18] = tested on: OR2H2 L30F/A48V clone 1061
[19] = tested on: OR2H2 clone 1066
[20] = tested on: OR2J2 T111A clone 1073

| SMILES | odorant receptor activation [1] | odorant receptor activation [2] | odorant receptor activation [3] | odorant receptor activation [4] | odorant receptor activation [5] | odorant receptor activation [6] | odorant receptor activation [7] | odorant receptor activation [8] | odorant receptor activation [9] | odorant receptor activation [10] | odorant receptor activation [11] | odorant receptor activation [12] | odorant receptor activation [13] | odorant receptor activation [14] | odorant receptor activation [15] | odorant receptor activation [16] | odorant receptor activation [17] | odorant receptor activation [18] | odorant receptor activation [19] | odorant receptor activation [20] |
| --- | --- | --- | --- | --- | --- | --- | --- | --- | --- | --- | --- | --- | --- | --- | --- | --- | --- | --- | --- | --- |
| CS [methanethiol] | 1.02 | 1.12 | 0.669 | 0.813 | 0.874 | 1.54 | 0.608 | 0.818 | 0.701 | 0.903 | 1.02 | 0.836 | 0.999 | 1.02 | 0.884 | 0.743 | 0.845 | 0.986 | 1.55 | 1.03 |
| CCCCOC(C)=O [butyl acetate] | 1.31 | 0.814 | 0.381 | 0.32 | 0.409 | 0.328 | 1.27 | 0.722 | 0.284 | 1.08 | 1.22 | 0.734 | 0.155 | 0.828 | 0.241 | 1.05 | 0.173 | 1.19 | 1.17 | 0.943 |
| CCOc1cc(C=O)ccc1O [ethyl vanillin] | 2.24 and 0.915 | 1.17 and 1.04 | 1.37 and 1.1 | 1.3 and 1.11 | 1.13 and 1.03 | 1.13 | 0.697 | 0.93 | 0.891 and 1.16 | 1.35 and 1.15 | 0.533 and 1.18 | 1.24 and 2.28 and 1.01 | 1.11 and 1.2 | 1.1 and 1.21 | 1.02 and 1.29 | 1.1 and 2.46 and 1.03 | 1.16 and 1.39 | 1.41 and 1.04 | 1.07 and 1.31 | – |
| CCC(C)=O [2-butanone] | 3.65 | 1.24 | 1.3 | 1.39 | 1.26 | 0.917 | 1.42 | 0.745 | 0.494 | 2.51 | 17.3 | 0.979 | 1.9 | 0.908 | 1.14 | 0.857 | 1.59 | 2.43 | 4.05 | 1.99 |
